# Primary screen of a compound library

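Whole-cell growth test on Mycobacterium tuberculosis, read after 4 days in a medium based on cholesterol and the lipid DPPC; the read-out is not stated. Compounds at 50 µM. The record gives no direction; compounds that gave an IC50 in retests scored well above the rest, so higher reads as more growth inhibition. About 69,000 compounds were tested under these conditions; 0.54% (about 370) showed 50% or more at least once.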

Values are the deposited “Percent Effect”, in %. The controls that fix the scale are not given in the record; negative values are as filed. The compounds are a random part of those screened. Two or more numbers in one place are separate tests of the same structure; such repeats can differ widely.

structure,Percent Effect
Cc1noc(C(C)SCc2ccccn2)n1 (stereo not drawn),-9.348
CN(C)S(=O)(=O)CCNc1ncc2c(n1)CCN2c1ccccc1,11.98
COCCO[C@@H]1CCN(C(=O)c2ccc(C)o2)[C@@H]1Cc1cccnc1.O=C(O)C(F)(F)F,-13.02 and -9.781
c1cncc(OC2CCN(CCn3cc4ccccc4n3)CC2)c1,3.083
CC(=O)N1CCC(n2nccc2-c2cnc(N)nc2)CC1,-5.318
COCc1cccc(CNc2cnn(C(C)(C)C)c(=O)c2Cl)c1,11.36
O=C(O)C(F)(F)F.c1c2c(nn1CC1CCOCC1)C(CNC1CCOCC1)OCC2 (stereo not drawn),-13.56
CNS(=O)(=O)c1ccc(CN(C)Cc2nc3ccc(F)cc3[nH]2)cc1,-10.31 and -3.874
CCN1CCC(CC(=O)NC[C@H]2CCc3ccccc3O2)CC1,-0.1835
Cc1cccc(CC(=O)NS(=O)(=O)c2ccc(F)c(F)c2)c1,-13.77
CNC(=O)CN1CCC2(CC1)C[C@@H](O)[C@H](c1ccccc1)NC2=O,-5.005
CC(NC(=O)c1ccc(C(N)=O)cc1)c1cccc(N2CCOC2=O)c1 (stereo not drawn),-11.13
CCc1ccsc1C(=O)NC(C#N)CC (stereo not drawn),-18.76
CCN1CCC(NC(=O)CN2CCCC2Cn2cncn2)CC1 (stereo not drawn),-12.94
Cc1ccc(C(C)(O)CNC(=O)c2sccc2OC(F)F)o1 (stereo not drawn),8.554
CCC(=O)N1CCCCC1c1nc(O)c2c(n1)CN(C(=O)C1CC1)CC2 (stereo not drawn),-1.929 and 5.488
O=C(O)C(F)(F)F.[H][C@@]12CC(=O)N(CC(=O)N(C)C)[C@@]1([H])CCN2Cc1cccc(C#N)c1,-9.163 and -7.037
Cc1c(NC(=O)N(C)CCCc2cnn(C)c2)cnn1C,14.33
Cc1ccccc1OC1CCN(S(=O)(=O)c2c(C)n[nH]c2C)CC1,13.81
Cc1nc2ncnn2c2ccn(-c3cccnc3O)c(=O)c12,7.027
CC(C)C1CN(C(=O)c2ccc(N3CCCC3)nc2)CCS1 (stereo not drawn),-9.786
Oc1ccccc1-c1n[nH]c(C2CC2)n1,-19.3
O=C(O)C(F)(F)F.O=C(O)C(F)(F)F.[H][C@]12CN(Cc3ccncc3)C[C@@]1([H])OCCN(S(C)(=O)=O)C2,-1.975
CC(C)(C)N1CC(C(=O)N2CCN(CCn3cccc3)CC2)CC1=O (stereo not drawn),-1.237
Clc1ccc(CN2CCC3(CC2)CC(c2cccnc2)=NO3)cc1,-11.94
CC(C)C(NC(=O)NCCNc1ccccn1)c1cccs1 (stereo not drawn),-13.31
CC(C)NC(=O)N1Cc2nccn2CC(COc2cccnc2)C1.O=C(O)C(F)(F)F (stereo not drawn),-35.7
CC(C1CCN(Cc2ccccc2OC(F)F)CC1)N1CCOCC1 (stereo not drawn),-6.605 and 9.675
Cn1c(N)nnc1SCc1cc(Br)ccc1Cl,1.515
Cc1cccc(CN2CCC3(CCCN(C(=O)N4CCCC4)C3)C2=O)n1.O=C(O)C(F)(F)F (stereo not drawn),-28.41 and -26.26
Cn1ccc(C(=O)N2CCOC(c3ccc(C(N)=O)cn3)C2)n1 (stereo not drawn),-19.34
CCC(C(=O)NCc1cccnc1)N(c1cccc(C)c1)S(C)(=O)=O (stereo not drawn),-3.085 and -1.108
O=C(CS(=O)(=O)Cc1ccc(Br)cc1F)Nc1cn[nH]c1,-4.739
COC(=O)CC(c1cccc(OC(F)F)c1)c1oc(C)cc(=O)c1O (stereo not drawn),-29.38
O=C(O)C(F)(F)F.O=C(O)C(F)(F)F.[H][C@]12CCN(Cc3cccc(C#N)c3)C[C@@]1([H])[C@H](CN1CCCC1)OC2,-21.44
CCCNC(=O)c1nn(CC)cc1NC(=O)C(C)n1ncc(Cl)c1C (stereo not drawn),3.539
CS(=O)(=O)N1CCCCC12CCN(c1nncs1)CC2,-14.63
Cc1ccc(-n2cc(C)cn2)c(NC(=O)NC2(C)CCOC2)c1 (stereo not drawn),17
CCn1nc(C)c2nnn(CC(=O)Nc3cccc(F)c3)c(=O)c21,-7.838
[H][C@@]12CC[C@H](Oc3cccc(F)c3)[C@]1([H])CN(C(=O)c1ccnnc1)C2,-3.274
[H][C@@]12CCN(C(=O)Cc3ccc(O)cc3)C[C@]1([H])[C@@H](c1ccccc1)CN2C,-34.82 and -24.1
CN1CCCN(C(=O)c2cc(CN(C)CCc3ccccc3)on2)CC1,-15.61
COCC(=O)N1CCN(c2ncnc3cccc(F)c23)CC1,-18.34
CC(=O)N1CCc2c(nc(N(C)C)nc2NCCC2CCCCO2)C1 (stereo not drawn),-15.06 and -0.5685
Cc1cnn(C2CN(CCCOc3ccc(C#N)cc3)C2)c1,-1.374
COCC(=O)N1CCCC2(CCN(c3ccccc3)C2=O)C1 (stereo not drawn),-29.36 and 1.811
Cc1ccsc1CCNC(=O)C1(Oc2cccnc2C)CCNCC1,1.705
O=C(O)C(F)(F)F.O=C(O)C(F)(F)F.O=C(O)C(F)(F)F.O=C(O)C(F)(F)F.c1ccc(CN2CCC3(CC2)CCN(Cc2cccnc2)C3)nc1,-5.768 and 10.39
Cc1nc(NC(=O)CCN2C(=O)c3ccccc3NC2C(C)C)sc1C (stereo not drawn),8.036
CN1CC(Nc2nc3c(cnn3-c3ccccc3)c(=O)[nH]2)CCC1=O (stereo not drawn),-32.76
COc1ccc(F)c(CN2CCC(c3cc(O)nc(C)n3)C2)c1.O=C(O)CC(O)(CC(=O)O)C(=O)O (stereo not drawn),1.783
CN1CCC(c2cccc(Cc3ccc(C(F)(F)F)cc3)n2)CC1,32.88
CSC(C)C(=O)N(C)CCCc1cc(-c2ccccc2)no1 (stereo not drawn),-5.432

Some entries from above, unchanged:

structure,Percent Effect
COCCO[C@@H]1CCN(C(=O)c2ccc(C)o2)[C@@H]1Cc1cccnc1.O=C(O)C(F)(F)F,-13.02 and -9.781
CNC(=O)CN1CCC2(CC1)C[C@@H](O)[C@H](c1ccccc1)NC2=O,-5.005
CCCNC(=O)c1nn(CC)cc1NC(=O)C(C)n1ncc(Cl)c1C (stereo not drawn),3.539
[H][C@@]12CCN(C(=O)Cc3ccc(O)cc3)C[C@]1([H])[C@@H](c1ccccc1)CN2C,-34.82 and -24.1
CSC(C)C(=O)N(C)CCCc1cc(-c2ccccc2)no1 (stereo not drawn),-5.432
CC(C1CCN(Cc2ccccc2OC(F)F)CC1)N1CCOCC1 (stereo not drawn),-6.605 and 9.675
COCC(=O)N1CCCC2(CCN(c3ccccc3)C2=O)C1 (stereo not drawn),-29.36 and 1.811

Source: ChEMBL document CHEMBL3988442, “University of Dundee, Small-Polar-MMV Screening Library” (2021).